At least one read-out could not be matched to a standard name with certainty.
B1: E. coli NfnB: the known E. coli B nitroreductase enzyme (NfnB) (protein)
chain: MDIISVALKRHSTKAFDASKKLTPEQAEQIKTLLQYSPSSTNSQPWHFIVASTEEGKARVAKSAAGNYVFNERKMLDASHVVVFCAKTAMDDVWLKLVVDQEDADGRFATPEAKAANDKGRKFFADMHRKDLHDDAEWMAKQVYLNVGNFLLGVAALGLDAVPIEGFDAAILDAEFGLKEKGYTSLVVVPVGHHSVEDFNATLPKSRLPQNITLTEV
B2: Rat DTD: rat DT-diaphorase enzyme (protein, UniProt P05982 2-274, looked up)
NAD(P)H dehydrogenase …: AVRRALIVLAHAERTSFNYAMKEAAVEALKKKGWEVVESDLYAMNFNPLISRNDITGEPKDSENFQYPVESSLAYKEGRLSPDIVAEQKKLEAADLVIFQFPLYWFGVPAILKGWFERVLVAGFAYTYATMYDKGPFQNKKTLLSITTGGSGSMYSLQGVHGDMNVILWPIQSGILRFCGFQVLEPQLVYSIGHTPPDARVQVLEGWKKRLETVWEESPLYFAPSSLFDLNFQAGFLLKKEVQEEQKKNKFGLSVGHHLGKSIPADNQIKARK
B3: Bam YwrO: nitroreductase from B. amyloliquefaciens, SEQ ID NO: 2 (protein, listed as Bacillus amyloliquefaciens)
chain: VKVLVLAVHPDMENSAVNKAWAEELKKHDELTVRELYKEYPDGQIDAEKERQLCEQYDRIVFQFPLYWYSAPPLLKTWMDHVLSYGWAYGSKGKALHGKELMLAVSVGAGEDAYQAGGSNHFTLSELLRPFQAMANFTGMTYLPAFALYGVNGADATDIHDNAKRLAAYIKKSF

Experiments:
[1] = Nitroreductase enzyme assay with CB 1954 as substrate (HPLC); type: biochemical; conditions: Table 1; read-out: CB1954 Km
[2] = Nitroreductase enzyme assay with SN 23862 as substrate (HPLC); type: biochemical; conditions: Table 1; read-out: SN23862 Km

Molecule	Km [1]	Km [2]
B1	862 µM	2500 µM
B2	826 µM	
B3	617 µM	

Source: patent publication US20040014191A1, “Nitroreductase enzymes” (priority 1999, published 2004)
